Assay results taken from US10344065B2 (National Cheng Kung University, priority 2017, dated 2019).

Assay: peptide made by a vendor
Settings: whole synthesis

For “MSSRRSSSCKYCEQDFRAHTQKNAAFPFLAN (MSSRRSSSCKYCEQDFRAHTQKNAATPFLAN; Synthesized pepetide)”, the “purity (crude or final not stated)” value was “˜85% pure”.

Plain letter strings leave the end groups untold.
